Record: PubChem BioAssay AID1259308 (NCATS, 2017)

- Assay: 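Genes whose loss raises luciferase production in HEK293 cells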 (primary screen)
- System: human HEK293 embryonic kidney cells stably expressing firefly luciferase (HEK-CMV-Luc2-Hygro)
- Knock-down reagent: single siRNA against human genes, 0.8 pmol siRNA per well
- Timing: 72 h
- Measured: 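Luciferase light (ONE-Glo) measured on one replicate plate set and viability (CellTiter-Glo) on the other, scaled to a negative control siRNA, with robust z-scores and luciferase per cell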
- Direction: total luciferase, z-score: higher = more reporter protein produced
- Rule for the call: 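Active when the median/MAD z-score for overall luciferase is greater than 3; a gene was taken forward for validation with new siRNAs if at least two of its three siRNAs passed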
- Calls: active = raised luciferase; inactive = no rise
The whole screen tested about 59,000 reagents; shown is a random part of them. About 1,510 of all reagents (2.6%) were called active. 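Calls use total luciferase alone and ignore viability, so some active siRNAs may act by altering cell number.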 Entries without a mark were called inactive. The numbers tell different reagents against one gene apart. Not all columns of the deposit are shown.

Gene | siRNA no. | total luciferase, z-score
SERPINA7 | 1 | -0.0189
SERPINA7 | 2 | -1.1
SERPINA7 | 3 | -1.42
APLF | 1 | 1.22
APLF | 2 | 1.22
APLF | 3 | 0.558
PIH1D1 | 1 | -0.31
PIH1D1 | 2 | 0.504
PIH1D1 | 3 | -2.41
DMRTC1 | 1 | 4.47 (active)
DMRTC1 | 2 | 1.32
DMRTC1 | 3 | -1.39
TECPR1 | 1 | 0.263
TECPR1 | 2 | -0.321
TECPR1 | 3 | 0.00699

6 of these entries, reformatted:
| Gene | siRNA no. | total luciferase, z-score |
| --- | --- | --- |
| SERPINA7 | 3 | -1.42 |
| APLF | 1 | 1.22 |
| APLF | 2 | 1.22 |
| APLF | 3 | 0.558 |
| PIH1D1 | 1 | -0.31 |
| PIH1D1 | 2 | 0.504 |

Further results follow.
Gene | siRNA no. | total luciferase, z-score
UGT2B15 | 1 | -0.8
UGT2B15 | 2 | 0.365
UGT2B15 | 3 | -1.97
STAT4 | 1 | 0.725
STAT4 | 2 | -0.647
STAT4 | 3 | -0.275
ATP5F1E | 1 | -0.885
ATP5F1E | 2 | -0.318
ATP5F1E | 3 | 0.575
BBS9 | 1 | -0.934
BBS9 | 2 | -0.141
BBS9 | 3 | -1.44
GAB4 | 1 | -1.86
GAB4 | 2 | -0.469
GAB4 | 3 | 0.338
MMUT | 1 | -0.806
MMUT | 2 | -0.69
MMUT | 3 | -0.677
ZNF483 | 1 | 1.52
ZNF483 | 2 | -0.034
ZNF483 | 3 | 1.05
AFAP1L1 | 1 | -1.79
AFAP1L1 | 2 | 0.000691
AFAP1L1 | 3 | 2.65
